Taken from: PubChem BioAssay AID1259267 (Sanger Institute, 2017)

Test: 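Kinase and colorectal-mutated gene knock-downs lethal to GP5D cells alone or with drugs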 (primary screen)
Cell system: human GP5D colorectal cancer cells
Reagent: siRNA pool against human genes
Challenge: anchor drugs at low dose: BYL719 1 µM, cetuximab 5 µg/ml, trametinib 10 nM, or DMSO vehicle
Read-out: 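Viability against non-targeting pool, replicate mean: robust z-score for knock-down alone, fraction with DMSO, synergy with BYL719 1 µM, cetuximab 5 µg/ml, trametinib 10 nM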
Direction: robust z-score, knock-down alone and viability with DMSO: higher = more viable cells; synergy score with trametinib and synergy score with BYL719 and synergy score with cetuximab: higher = stronger synthetic lethal synergy with drug
Rule for the call: 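a robust z-score below -3 for the knock-down by itself makes a gene active, i.e. essential alone; synergy scores are ignored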
Meaning of the calls: active = essential alone; inactive = not essential
In all, the deposit lists 794 reagents; shown is an unselected part. Of all reagents, 9 (1.1%) got an active call. 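Viability capped at 1; calls reflect loss of viability from knock-down alone, not synergy with drugs.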 A number with no mark means an inactive call. The record does not give: the amount of reagent, the time to read-out.

target gene | robust z-score, knock-down alone | viability with DMSO (fraction of control) | synergy score with trametinib | synergy score with BYL719 | synergy score with cetuximab
ITPKC | 0.817 | 1 | 0.107 | -0.0479 | -0.142
MAGI2 | 0.817 | 1 | 0.0807 | -0.0814 | -0.121
PI4K2B | 0.817 | 1 | 0.0271 | 0.00583 | 0.0728
IGF2R | 0.143 | 0.857 | -0.153 | -0.299 | -0.127
STK16 | -1.24 | 0.563 | -0.295 | -0.327 | -0.304
CDKN1C | 0.38 | 0.907 | -0.0413 | -0.0729 | 0.028
GUCY2F | 0.817 | 1 | 0.167 | 0.118 | -0.0911
RBM10 | -0.658 | 0.687 | 0.0747 | -0.0427 | -0.0237
BCOR | 0.817 | 1 | 0.234 | 0.111 | 0.13
AXL | 0.774 | 0.991 | -0.111 | -0.154 | -0.15
PFKFB2 | 0.817 | 1 | 0.0479 | -0.0334 | -0.0767
MAP2K7 | -1.5 | 0.509 | 0.0695 | -0.137 | 0.0605
GTF2H1 | -0.49 | 0.723 | -0.0913 | -0.0312 | -0.0273
DGKK | 0.817 | 1 | -0.197 | -0.0953 | -0.142
CHD9 | 0.817 | 1 | -0.0946 | -0.147 | -0.0551
CAMKV | -0.616 | 0.696 | 0.12 | -0.167 | 0.0431
SCYL1 | 0.817 | 1 | -0.197 | -0.361 | -0.142
BRSK1 | -0.0389 | 0.819 | 0.0699 | -0.132 | -0.0278
PRKAR1A | 0.817 | 1 | -0.164 | -0.233 | -0.142
FN3K | -0.335 | 0.756 | -0.188 | -0.183 | -0.327
PIP5K1A | -0.822 | 0.653 | -0.153 | -0.279 | -0.388
CMPK1 | -0.161 | 0.793 | -0.291 | -0.0966 | -0.158
TJP2 | -0.207 | 0.783 | -0.186 | -0.22 | -0.28
CAMKK2 | -1.25 | 0.562 | -0.141 | -0.434 | -0.0348
ALDH18A1 | 0.636 | 0.962 | -0.0255 | 0.0179 | -0.0653
DYRK1A | 0.817 | 1 | 0.224 | 0.000159 | -0.142
CSNK1G2 | -0.0912 | 0.808 | 0.141 | -0.152 | -0.149
PI4KB | 0.817 | 1 | 0.302 | -0.142 | -0.0841
AKT3 | 0.0968 | 0.847 | 0.353 | -0.0648 | 0.112
RIOK1 | 0.0157 | 0.83 | -0.189 | -0.127 | -0.14
MPP2 | 0.817 | 1 | 0.253 | -0.0144 | -0.142
CEP290 | 0.817 | 1 | 0.0561 | -0.25 | 0.0115
CDKN2B | 0.817 | 1 | -0.197 | -0.361 | -0.142
PDK1 | 0.817 | 1 | -0.0933 | -0.181 | -0.142
FYN | 0.817 | 1 | 0.187 | -0.0816 | -0.0409
LATS2 | -0.606 | 0.698 | -0.345 | -0.421 | -0.23
PDXK | 0.817 | 1 | 0 | -0.214 | -0.142
POMK | 0.817 | 1 | 0.0438 | -0.147 | -0.142
STK32B | 0.22 | 0.874 | 0.292 | -0.0901 | -0.123
YES1 | 0.817 | 1 | -0.152 | -0.291 | -0.142
PIK3R2 | 0.817 | 1 | -0.117 | -0.13 | -0.142
PDGFRA | 0.817 | 1 | 0.276 | 0.0127 | -0.0824
STK32C | 0.817 | 1 | 0.0484 | -0.161 | -0.0727
AAK1 | 0.133 | 0.855 | 0.0311 | -0.13 | -0.179
CAMK4 | -0.905 | 0.635 | -0.192 | -0.327 | -0.213
IPMK | 0.379 | 0.907 | 0.00605 | -0.267 | 0.116
NME2 | -0.394 | 0.743 | -0.0276 | -0.121 | 0
EPHA1 | 0.817 | 1 | 0.0402 | -0.102 | 0.0796
ANKK1 | -0.346 | 0.753 | -0.057 | -0.143 | -0.0326
FLT1 | 0.817 | 1 | -0.132 | -0.313 | -0.142

8 of these entries, set out differently:
{"target gene": "PFKFB2", "robust z-score, knock-down alone": 0.817, "viability with DMSO (fraction of control)": 1, "synergy score with trametinib": 0.0479, "synergy score with BYL719": -0.0334, "synergy score with cetuximab": -0.0767}
{"target gene": "MAP2K7", "robust z-score, knock-down alone": -1.5, "viability with DMSO (fraction of control)": 0.509, "synergy score with trametinib": 0.0695, "synergy score with BYL719": -0.137, "synergy score with cetuximab": 0.0605}
{"target gene": "GTF2H1", "robust z-score, knock-down alone": -0.49, "viability with DMSO (fraction of control)": 0.723, "synergy score with trametinib": -0.0913, "synergy score with BYL719": -0.0312, "synergy score with cetuximab": -0.0273}
{"target gene": "DGKK", "robust z-score, knock-down alone": 0.817, "viability with DMSO (fraction of control)": 1, "synergy score with trametinib": -0.197, "synergy score with BYL719": -0.0953, "synergy score with cetuximab": -0.142}
{"target gene": "CHD9", "robust z-score, knock-down alone": 0.817, "viability with DMSO (fraction of control)": 1, "synergy score with trametinib": -0.0946, "synergy score with BYL719": -0.147, "synergy score with cetuximab": -0.0551}
{"target gene": "CAMKV", "robust z-score, knock-down alone": -0.616, "viability with DMSO (fraction of control)": 0.696, "synergy score with trametinib": 0.12, "synergy score with BYL719": -0.167, "synergy score with cetuximab": 0.0431}
{"target gene": "SCYL1", "robust z-score, knock-down alone": 0.817, "viability with DMSO (fraction of control)": 1, "synergy score with trametinib": -0.197, "synergy score with BYL719": -0.361, "synergy score with cetuximab": -0.142}
{"target gene": "BRSK1", "robust z-score, knock-down alone": -0.0389, "viability with DMSO (fraction of control)": 0.819, "synergy score with trametinib": 0.0699, "synergy score with BYL719": -0.132, "synergy score with cetuximab": -0.0278}
